Data on 31 compounds can be found in the supplement of paper PMC12889115.

The test deals with Salmonella enterica serovar Typhimurium SL1344. Description: bacterial growth OD600 after 18 h with compound and polymyxin B; higher = more bacterial growth (less inhibition). The following applies: 50 µM, Mueller-Hinton broth.

This is one part of the list. These are raw signals, not scaled to a control.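 First-pass screen: polymyxin B was added at a level that permeabilizes the Salmonella outer membrane while sparing the inner membrane. DMSO wells, with and without polymyxin B, defined maximum growth. Because plates differed from one another, each plate's data were ranked separately and the compounds with the lowest OD600 were carried forward as hits.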

Take `CO[C@H]1[C@H](NC(=O)Cc2ccccc2)c2ccccc2C12CCN(C(=O)COc1ccccc1)CC2`: under “polymyxin B 0.75 µg/mL”, the “bacterial growth OD600” value was found to be 0.792.
The same measure, in the same setting: in the case of `CC[C@H](C)[C@H](NC1CCN(c2ccc(C(=O)N3CCN(CC)CC3)cc2)CC1)C(=O)OC` it was 0.762; in that of `CC(=O)c1ccc(-c2cc(F)cc3c2OC(CNC(=O)Cc2ccccc2F)C3)s1` (stereo unspecified), 0.605.
With `Cc1ccccc1N1CCN(c2ncccc2CNC(=O)c2ccoc2)CC1`, for the setting “polymyxin B 1 µg/mL”, the “bacterial growth OD600” value turned out to be 0.543.
Turning to `CCN1CCN(C(=O)c2ccc(N3CCC(NCc4cc5ccccc5s4)CC3)cc2)CC1`, the “bacterial growth OD600” value (polymyxin B 0.75 µg/mL) turned out to be 0.737.
Same read-out and setting: in the case of `COc1ccc(CN2CCOC(Cc3ccccc3)C2)cc1OC` (stereo unspecified) it was 0.798.
For `Cc1c[nH]c(CN(C)C(=O)CC(c2ccccc2)c2ccc(Cl)cc2)n1` (stereo unspecified), the “bacterial growth OD600” value (polymyxin B 1 µg/mL) was found to be 0.012.
Regarding `COc1ccc(Cc2nc3ccc(C(=O)N4CCN(C5CCCC5)CC4)cc3o2)cc1`, under “polymyxin B 0.75 µg/mL”, the “bacterial growth OD600” value came out at 0.752.
Still for that read-out and setting: in the case of `CCC(NC(=O)C1CCCN(c2nc(C)c3ccc(OC)cc3n2)C1)c1cccs1` (stereo unspecified) it was 0.01; in that of `CC(C)(O)C#Cc1cccc(C(=O)NCCN2Cc3ccccc3OC(c3ccsc3)C2)c1` (stereo unspecified), 0.08; in that of `CSc1ccccc1C(=O)NCc1c(C)ncc2c1CCN(C(=O)c1cc3ccccc3o1)C2`, 0.004.
On to `COc1ccc(-c2nn(-c3ccccc3)cc2CN2CCN3CCCC3C2)c(F)c1` (stereo unspecified), for which, where the note is “polymyxin B 1 µg/mL”, the “bacterial growth OD600” value stood at 1.08.
With `Cc1nc(N(C)C2CCCCC2)ncc1C(C)NC(=O)Cc1ccccn1` (stereo unspecified), the “bacterial growth OD600” value (polymyxin B 0.75 µg/mL) was 0.896.
Take `C=CCS(=O)(=O)N1CCC2(CCCN(CCCc3ccccc3)C2=O)C1` (stereo unspecified): for the setting “polymyxin B 1 µg/mL”, the “bacterial growth OD600” value was 0.986.
With `COc1ccc(CC2=NOC(C(=O)NCc3csc(-c4cccs4)n3)C2)cc1` (stereo unspecified), the “bacterial growth OD600” value (polymyxin B 0.75 µg/mL) was found to be 0.737.
Still for that read-out and setting: in the case of `CN1C(=O)CC(CC(=O)N2CCC(N3CCSCC3)CC2)(c2ccc(-c3ccccc3)cc2)C1=O` (stereo unspecified) it was 0.672.
Consider `COc1cc(-c2n[nH]cc2CN2CCCCC2c2nccs2)cc(OC)c1OC` (stereo unspecified), for which, under “polymyxin B 1 µg/mL”, the “bacterial growth OD600” value stood at 0.903.
Still for that read-out and setting: in the case of `CCc1ccc(CN(C)C(=O)CCc2nnc(COc3ccccc3)o2)cc1` it was 0.825; in that of `CCc1cc(C(=O)N2CCCCC2C(=O)Nc2cccc(-c3nnc(C)s3)c2)on1` (stereo unspecified), 0.836.
Still for that read-out and setting: in the case of `COc1ccc(OC)c(-c2nc(CN(Cc3cnn(C)c3)C(C)C)c(C)o2)c1` it was 1.15.
On to `CSc1ccccc1C(=O)NC1CCCN(CCCc2ccccc2)C1` (stereo unspecified), for which the “bacterial growth OD600” value (polymyxin B 1 µg/mL) amounted to 0.994.
Turning to `CCn1ccnc1CNC(=O)CC(c1ccccc1)c1ccc2c(c1)OCO2` (stereo unspecified), the “bacterial growth OD600” value (polymyxin B 1 µg/mL) was determined as 0.818.
Turning to `COc1ccc2c(c1)SC(c1ccc3c(c1)OCO3)CCN2Cc1ccsc1` (stereo unspecified), the “bacterial growth OD600” value (polymyxin B 0.75 µg/mL) was -0.002.
On the same count and under the same terms, in the case of `COCCN1C(=O)NC(Cc2ccc(F)cc2)(C2CCN(C(=O)c3c(F)cccc3F)CC2)C1=O` (stereo unspecified) it was 0.818; in that of `Cn1nc(C(=O)N2CCCC(CCc3cccc(F)c3)C2)ccc1=O` (stereo unspecified), 0.16.
For `COc1ccccc1CCN1CCCC(CN(C)C(=O)c2cccnc2)C1` (stereo unspecified), the “bacterial growth OD600” value (polymyxin B 1 µg/mL) turned out to be 0.782.
Regarding `COC(=O)c1ccc(N2C[C@H]3OC(=O)N(CCc4ccc(OC)cc4)[C@H]3C2)nc1`, under “polymyxin B 0.75 µg/mL”, the “bacterial growth OD600” value turned out to be 0.875.
As for `CCOC(=O)C1(Cc2ccccc2)CCN(Cc2ccc(NC(C)=O)cc2)CC1`, the “bacterial growth OD600” value (polymyxin B 1 µg/mL) stood at 0.808.
For the compound `COc1ccc(CN2CCNC(=O)C2CC(=O)N2CCN(c3ccccc3C)CC2)cc1C` (stereo unspecified), the “bacterial growth OD600” value (polymyxin B 1 µg/mL) came to 1.25.
For the compound `CCCc1cc(CN(C)C(=O)CC2C(=O)NCCN2CCCc2ccccc2)n[nH]1` (stereo unspecified), the “bacterial growth OD600” value (polymyxin B 1 µg/mL) is 1.01.
On the same count and under the same terms, in the case of `C=CCNC(=O)Cc1c2c(n(CCc3ccccc3)c1C)CCCC2=O` it was 0.745.
